Reference: the supplement of paper PMC3334620
Over roughly 33,000 sequences, “E-score (-0.5 to 0.5)” has its median near -0.015; the highest 2% begin near 0.3. The list shows a part of the results.

Molecular target: T1, Abf1 (UniProt P14164)
T1 sequence: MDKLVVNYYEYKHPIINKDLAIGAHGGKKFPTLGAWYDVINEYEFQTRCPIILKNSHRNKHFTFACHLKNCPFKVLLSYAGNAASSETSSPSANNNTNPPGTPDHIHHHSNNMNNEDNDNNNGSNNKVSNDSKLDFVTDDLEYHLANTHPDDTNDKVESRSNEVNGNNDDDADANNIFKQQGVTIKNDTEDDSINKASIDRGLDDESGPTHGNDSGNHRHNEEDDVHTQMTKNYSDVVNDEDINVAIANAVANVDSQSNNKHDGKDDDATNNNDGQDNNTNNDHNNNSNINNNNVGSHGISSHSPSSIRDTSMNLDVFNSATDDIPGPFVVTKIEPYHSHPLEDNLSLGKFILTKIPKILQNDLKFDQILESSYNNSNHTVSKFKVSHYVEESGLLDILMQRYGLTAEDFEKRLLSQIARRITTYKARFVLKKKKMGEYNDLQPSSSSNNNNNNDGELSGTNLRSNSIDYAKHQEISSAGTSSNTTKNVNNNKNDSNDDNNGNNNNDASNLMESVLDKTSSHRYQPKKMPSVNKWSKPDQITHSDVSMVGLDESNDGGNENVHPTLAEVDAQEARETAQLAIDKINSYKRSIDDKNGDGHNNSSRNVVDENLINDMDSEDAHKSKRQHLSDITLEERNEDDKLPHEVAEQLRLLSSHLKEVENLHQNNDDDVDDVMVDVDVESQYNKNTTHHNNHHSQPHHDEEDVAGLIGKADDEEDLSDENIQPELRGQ
Assay: PBM E-score (8-mer binding enrichment) (E-score (-0.5 to 0.5)); higher = stronger / more preferred TF binding
Details: protein concentration: 200 nM; construct: GST-full length
Method in brief: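 PURExpress in vitro transcription/translation supplied GST-tagged yeast transcription factors, either full-length or DNA-binding domain. Applied at about 100-200 nM to universal all-10-mer Agilent arrays double-stranded by primer extension, the bound protein was detected with fluorescent anti-GST. E-scores, modified Wilcoxon-Mann-Whitney statistics, were given by the Universal PBM Analysis Suite to ungapped eight-base words pooled with their reverse complements after masliner normalisation.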

Sequence	PBM E-score
ATGTCTTC	-0.00112
ACCCAAAC	0.0793
CTAGTGAA	-0.202
GCCATTCA	-0.0562
AGCTGCGA	-0.0485
GCTGATGA	0.199
ATTCTTTG	0.0255
ATTAAGGA	0.0257
CAGCGGAG	-0.115
ACCTTCGC	-0.0719
CACGAGTC	0.0257
CTCTAATC	0.0149
GACCGGAC	0.00876
ATATTGAA	0.168
AATCATAG	-0.0288
CAAACGAG	0.165
CAACAGCA	-0.173
TACCTGAA	0.0164
ACAGACCC	-0.224
AGTGGATG	0.013
AACAAGAA	0.237
AACATTCG	0.0942
AATTACCG	0.0216
GTTCAGAA	0.165
AAAGCCCG	-0.178

Sequence	PBM E-score
CGGTGCCA	0.0488
CTGCGCGC	0.0237
GTATTACA	-0.0656
AACTATCA	0.204
TCCGCGCA	-0.0496
AGATGGCA	0.036
ACCTGAGC	-0.0373
ACTCAGAT	0.0372
ACGATTAA	0.274
ACGGCCTA	0.234
AAAGGTGG	-0.116
GGCTGACA	-0.0556
CATTCGGC	-0.0277
TCTATTCA	-0.0146
AGCGGTCA	-0.163
GCGAATCC	-0.115
ACCCGACT	-0.115
AAGCCGAG	-0.106
CGTACATA	0.364
ACGAGAGG	-5e-05
AATACAGA	-0.033
TACTTCTA	0.148
CTCCCTTC	-0.253
CTCTTGAC	0.114
GACGCGAC	-0.0896

Sequence	PBM E-score
GTTTTGTA	0.194
AGCAAGAT	-0.0651
AACGGGTC	-0.0623
CTCAGTCA	-0.14
AGCTGGTA	-0.0722
GGAAATTA	0.0941
GACACGCC	0.0692
GTGGAGGA	0.0354
CTGACTGC	-0.328
ACTAAGGA	-0.0558
TACTCAGA	-0.00166
ATTAGAGC	0.139
ACATCGAT	0.135
GATTTGAA	0.063
CCGTCAAA	0.262
CGGATAGC	-0.0225
TCGCCCGA	-0.251
GAGCCAGA	-0.112
ACAGTCTG	-0.159
GAGAGCCC	-0.176
GACCACTC	0.0428
AGCTCGCA	-0.065
AACTCGCT	-0.17
TACGATAA	0.179
CAAATTTC	0.0187

4 entries drawn at random from the list so far:
Sequence	PBM E-score
CTCAGTCA	-0.14
TCGCCCGA	-0.251
CCGTCAAA	0.262
GAGAGCCC	-0.176

Next part.

Sequence	PBM E-score
AGCATCAT	0.0136
ACATACCG	0.247
CTCGCGAA	0.107
GCCTGATA	-0.0778
AAAGGAAG	-0.196
CTAGGCAC	-0.0596
GTACCTCA	0.0875
ATAAGTAA	0.154
CCTCTTCA	-0.17
GTGAGCCA	-0.0111
ATAAATAA	0.246
CAATGGAA	-0.0296
ACGGTTTG	0.0597
AACTTGCA	-0.0257
GCCCCTGA	-0.166
CCGTGAAA	0.381
CTTTACTA	0.116
CGGGATCC	-0.0411
ACATCATA	0.169
CCATCCCC	-0.287
CACATGCG	0.0238
AGCGTGGG	-0.168
AATTAGCC	-0.103
AGATTATG	0.083
ATTACGAG	0.159

Single values from the entries so far.
Under PBM E-score, ATAAGTAA is entered as 0.154
Under PBM E-score, AGATTATG is entered as 0.083
Under PBM E-score, CCATCCCC is entered as -0.287
Under PBM E-score, AGCGTGGG is entered as -0.168
Under PBM E-score, CCTCTTCA is entered as -0.17

(next part)

Sequence	PBM E-score
CCGGTCCC	-0.146
CTCTTAGA	-0.0928
TCGTCACA	0.282
AGAAAAAC	-0.172
AGATACGA	0.223
ATGGGCTG	-0.153
CACTAGCA	0.00155
GTAACGAC	0.239
CATTCTTC	0.0175
TACCAAAA	0.0276
CGAACCGA	0.126
AGTGGCGG	-0.267
TAGCTCCA	-0.0302
TCGTGCCA	0.226
CAGCCCAA	-0.12
GGCCACGA	-0.151
CCCACTGC	-0.19
TCGGCCAA	-0.102
CGAATGGC	-0.104
CAGGGACG	-0.0727
CCACTTTC	0.0118
ACAGGCCC	-0.369
AACTAAAT	-0.196
AATCACCA	0.24
GGTTTCCA	-0.116

Sequence	PBM E-score
CGTTAGCA	0.0353
AGCATCGG	0.0642
AGCCGGCT	-0.245
AGGATCTG	-0.12
CTTAGCCC	-0.264
AGTTAGTA	0.0677
ACTGCTAC	-0.0013
GACGAAAA	0.337
GCTATAAA	-0.101
CTTAGCAC	0.105
GTTGTTAA	0.158
CGTAAGAG	0.0503
GCTAAGAA	-0.145
ACCATACA	-0.171
CCTGAATC	-0.157
TATGGAGA	0.181
ACGTACCG	0.0986
CGTTCGTA	0.345
GAATGATC	0.32
AGGTACCT	-0.101
CTCGACAA	-0.0758
GTTTTGGA	0.0572
AACCTACG	0.0906
CAATATGG	-0.143
ATCGATAA	0.147

Sequence	PBM E-score
ACCCGTGG	-0.112
CGGGCAAA	0.104
AGGCTTTA	-0.275
ATCCTTAC	-0.094
ATAGATGA	0.212
CAGAGCCA	-0.361
ACACGGAA	0.267
AAAAGTAC	-0.00173
GGTTAGTA	-0.169
ATATACAG	0.187
ACTAGTTC	0.0309
ACCCCTTG	-0.356
ATGTTACA	0.1
CCAGATTA	0.0472
CAGCTTGC	-0.161
GCGAACGC	0.0422
TAAGTTCA	0.0492
CACTGTTC	-0.14
CTAGCAGC	-0.12
GCAGCTAA	0.0902
GAAATTAC	0.119
CGCAGTAA	0.0126
